From paper PMC8384837 come the findings set out here.

Where a chain is given by its changes, count along the chain named. Some of the results follow.

Common to all, as to settings: yeast three-hybrid, YBZ-1, SC-Leu-His + 0.5 mM 3-AT, 4 days
Assay [1] concerns the target T1, PUM1 PUF domain R5-DLR C1007D + R1008L + Q1011R (Homo sapiens) (UniProt Q14671).
T1 sequence: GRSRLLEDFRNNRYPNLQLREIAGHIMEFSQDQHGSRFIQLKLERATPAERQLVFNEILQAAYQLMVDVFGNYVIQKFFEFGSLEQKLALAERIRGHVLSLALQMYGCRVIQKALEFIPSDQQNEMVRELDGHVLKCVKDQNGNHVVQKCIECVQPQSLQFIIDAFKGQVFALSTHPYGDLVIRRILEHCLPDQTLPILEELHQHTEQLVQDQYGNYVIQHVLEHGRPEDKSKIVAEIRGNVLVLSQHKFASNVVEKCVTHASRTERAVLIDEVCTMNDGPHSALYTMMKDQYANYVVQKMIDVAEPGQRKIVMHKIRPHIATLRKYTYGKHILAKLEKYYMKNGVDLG

Assay [2] has as its target T2, PUM1 PUF domain R5-EKC C1007E + R1008K + Q1011C (Homo sapiens) (UniProt Q14671).
T2 sequence: T1 sequence with D180E, L181K, R184C

Assay [3] deals with T3, PUM1 PUF domain R5-GTE C1007G + R1008T + Q1011E (Homo sapiens) (UniProt Q14671).
T3 sequence: T1 sequence with D180G, L181T, R184E

Assay [4] addresses T4, PUM1 PUF domain R5-KTS C1007K + R1008T + Q1011S (Homo sapiens) (UniProt Q14671).
T4 sequence: T1 sequence with D180K, L181T, R184S

Assay [5] has as its target T5, PUM1 PUF domain R5-NSD C1007N + R1008S + Q1011D (Homo sapiens) (UniProt Q14671).
T5 sequence: T1 sequence with D180N, L181S, R184D

Assay [6] deals with T6, PUM1 PUF domain R5-RGE C1007R + R1008G + Q1011E (Homo sapiens) (UniProt Q14671).
T6 sequence: T1 sequence with D180R, L181G, R184E

Assay [7] has as its target T7, PUM1 PUF domain R5-RGV C1007R + R1008G + Q1011V (Homo sapiens) (UniProt Q14671).
T7 sequence: T1 sequence with D180R, L181G, R184V

Assay [8] deals with T8, PUM1 PUF domain R5-RQH C1007R + R1008Q + Q1011H (Homo sapiens) (UniProt Q14671).
T8 sequence: T1 sequence with D180R, L181Q, R184H

Assay [9] concerns the target T9, PUM1 PUF domain R5-SAT C1007S + R1008A + Q1011T (Homo sapiens) (UniProt Q14671).
T9 sequence: T1 sequence with D180S, L181A, R184T

For assay [10], the target named is T10, PUM1 PUF domain R5-SGK C1007S + R1008G + Q1011K (Homo sapiens) (UniProt Q14671).
T10 sequence: T1 sequence with D180S, L181G, R184K

The target in assay [11] is T11, PUM1 PUF domain R5-WHL C1007W + R1008H + Q1011L (Homo sapiens) (UniProt Q14671).
T11 sequence: T1 sequence with D180W, L181H, R184L

In assay [12] the target is T12, PUM1 PUF domain R6-AFL N1043A + Y1044F + Q1047L (Homo sapiens) (UniProt Q14671).
T12 sequence: T1 sequence with D180C, L181R, R184Q, N216A, Y217F, Q220L

Assay [13] concerns the target T13, PUM1 PUF domain R6-AWV N1043A + Y1044W + Q1047V (Homo sapiens) (UniProt Q14671).
T13 sequence: T1 sequence with D180C, L181R, R184Q, N216A, Y217W, Q220V

Assay [14] addresses T14, PUM1 PUF domain R6-EWL N1043E + Y1044W + Q1047L (Homo sapiens) (UniProt Q14671).
T14 sequence: T1 sequence with D180C, L181R, R184Q, N216E, Y217W, Q220L

The target of assay [15] is T15, PUM1 PUF domain R6-IFC N1043I + Y1044F + Q1047C (Homo sapiens) (UniProt Q14671).
T15 sequence: T1 sequence with D180C, L181R, R184Q, N216I, Y217F, Q220C

Assay [16] has as its target T16, PUM1 PUF domain R6-IFS N1043I + Y1044F + Q1047S (Homo sapiens) (UniProt Q14671).
T16 sequence: T1 sequence with D180C, L181R, R184Q, N216I, Y217F, Q220S

Assay [17] deals with T17, PUM1 PUF domain R6-LFT N1043L + Y1044F + Q1047T (Homo sapiens) (UniProt Q14671).
T17 sequence: T1 sequence with D180C, L181R, R184Q, N216L, Y217F, Q220T

Assay [18] addresses T18, PUM1 PUF domain R6-LWE N1043L + Y1044W + Q1047E (Homo sapiens) (UniProt Q14671).
T18 sequence: T1 sequence with D180C, L181R, R184Q, N216L, Y217W, Q220E

Assay [19] deals with T19, PUM1 PUF domain R6-TWA N1043T + Y1044W + Q1047A (Homo sapiens) (UniProt Q14671).
T19 sequence: T1 sequence with D180C, L181R, R184Q, N216T, Y217W, Q220A

Assay [20] addresses T20, PUM1 PUF domain R6-TWV N1043T + Y1044W + Q1047V (Homo sapiens) (UniProt Q14671).
T20 sequence: T1 sequence with D180C, L181R, R184Q, N216T, Y217W, Q220V

Take “GGCUAGAACUAGUGGAUCCCCCGGCGCCCGGCGGCUCGAGCCCGGGUAAGUGUAAAUAGUCUGCAUGCCGCCGGGCGCCAUGCCUGCAGGUCGACUCUAGAAAACAUG”: the binding signal (log2 enrichment (interaction score)) was -3.37 in assay [1]; -2.38 in assay [2]; -2.33 in assay [3]; -3.49 in assay [4]; -2.08 in [5]; -4.36 in assay [6]. The binding signal (log2 enrichment (interaction score)) in [7] was -2.04; in [8] it was -2.73; in assay [9] it was -3.88; in [10], -2.21; in [11], -3.03; in [12], 0.25. Further, the binding signal (log2 enrichment (interaction score)) in assay [13] was -0.32; in assay [14], 0.88; in assay [15] it was 0.76; in assay [16], -0.18; in assay [17], 0.13; in assay [18], 0.83. For the same sequence, the figures for the binding signal (log2 enrichment (interaction score)) in assay [19] and in assay [20] were 1.14 and 0.59, respectively.
